Measured values reported in patent EP0280051A1, “ACV synthetase” (QUEEN'S UNIVERSITY AT KINGSTON, priority 1987, dated 1988).
At least one structure is not confirmed: it was looked up by name or label, or the drawing left a doubt. Some of these results come from one statement about several compounds together.

The chains behind the UniProt entries cited, without tags or fusion partners. Where a name states a change or a piece, a line headed by the entry shows the natural chain unless it says otherwise.
UniProt P25464: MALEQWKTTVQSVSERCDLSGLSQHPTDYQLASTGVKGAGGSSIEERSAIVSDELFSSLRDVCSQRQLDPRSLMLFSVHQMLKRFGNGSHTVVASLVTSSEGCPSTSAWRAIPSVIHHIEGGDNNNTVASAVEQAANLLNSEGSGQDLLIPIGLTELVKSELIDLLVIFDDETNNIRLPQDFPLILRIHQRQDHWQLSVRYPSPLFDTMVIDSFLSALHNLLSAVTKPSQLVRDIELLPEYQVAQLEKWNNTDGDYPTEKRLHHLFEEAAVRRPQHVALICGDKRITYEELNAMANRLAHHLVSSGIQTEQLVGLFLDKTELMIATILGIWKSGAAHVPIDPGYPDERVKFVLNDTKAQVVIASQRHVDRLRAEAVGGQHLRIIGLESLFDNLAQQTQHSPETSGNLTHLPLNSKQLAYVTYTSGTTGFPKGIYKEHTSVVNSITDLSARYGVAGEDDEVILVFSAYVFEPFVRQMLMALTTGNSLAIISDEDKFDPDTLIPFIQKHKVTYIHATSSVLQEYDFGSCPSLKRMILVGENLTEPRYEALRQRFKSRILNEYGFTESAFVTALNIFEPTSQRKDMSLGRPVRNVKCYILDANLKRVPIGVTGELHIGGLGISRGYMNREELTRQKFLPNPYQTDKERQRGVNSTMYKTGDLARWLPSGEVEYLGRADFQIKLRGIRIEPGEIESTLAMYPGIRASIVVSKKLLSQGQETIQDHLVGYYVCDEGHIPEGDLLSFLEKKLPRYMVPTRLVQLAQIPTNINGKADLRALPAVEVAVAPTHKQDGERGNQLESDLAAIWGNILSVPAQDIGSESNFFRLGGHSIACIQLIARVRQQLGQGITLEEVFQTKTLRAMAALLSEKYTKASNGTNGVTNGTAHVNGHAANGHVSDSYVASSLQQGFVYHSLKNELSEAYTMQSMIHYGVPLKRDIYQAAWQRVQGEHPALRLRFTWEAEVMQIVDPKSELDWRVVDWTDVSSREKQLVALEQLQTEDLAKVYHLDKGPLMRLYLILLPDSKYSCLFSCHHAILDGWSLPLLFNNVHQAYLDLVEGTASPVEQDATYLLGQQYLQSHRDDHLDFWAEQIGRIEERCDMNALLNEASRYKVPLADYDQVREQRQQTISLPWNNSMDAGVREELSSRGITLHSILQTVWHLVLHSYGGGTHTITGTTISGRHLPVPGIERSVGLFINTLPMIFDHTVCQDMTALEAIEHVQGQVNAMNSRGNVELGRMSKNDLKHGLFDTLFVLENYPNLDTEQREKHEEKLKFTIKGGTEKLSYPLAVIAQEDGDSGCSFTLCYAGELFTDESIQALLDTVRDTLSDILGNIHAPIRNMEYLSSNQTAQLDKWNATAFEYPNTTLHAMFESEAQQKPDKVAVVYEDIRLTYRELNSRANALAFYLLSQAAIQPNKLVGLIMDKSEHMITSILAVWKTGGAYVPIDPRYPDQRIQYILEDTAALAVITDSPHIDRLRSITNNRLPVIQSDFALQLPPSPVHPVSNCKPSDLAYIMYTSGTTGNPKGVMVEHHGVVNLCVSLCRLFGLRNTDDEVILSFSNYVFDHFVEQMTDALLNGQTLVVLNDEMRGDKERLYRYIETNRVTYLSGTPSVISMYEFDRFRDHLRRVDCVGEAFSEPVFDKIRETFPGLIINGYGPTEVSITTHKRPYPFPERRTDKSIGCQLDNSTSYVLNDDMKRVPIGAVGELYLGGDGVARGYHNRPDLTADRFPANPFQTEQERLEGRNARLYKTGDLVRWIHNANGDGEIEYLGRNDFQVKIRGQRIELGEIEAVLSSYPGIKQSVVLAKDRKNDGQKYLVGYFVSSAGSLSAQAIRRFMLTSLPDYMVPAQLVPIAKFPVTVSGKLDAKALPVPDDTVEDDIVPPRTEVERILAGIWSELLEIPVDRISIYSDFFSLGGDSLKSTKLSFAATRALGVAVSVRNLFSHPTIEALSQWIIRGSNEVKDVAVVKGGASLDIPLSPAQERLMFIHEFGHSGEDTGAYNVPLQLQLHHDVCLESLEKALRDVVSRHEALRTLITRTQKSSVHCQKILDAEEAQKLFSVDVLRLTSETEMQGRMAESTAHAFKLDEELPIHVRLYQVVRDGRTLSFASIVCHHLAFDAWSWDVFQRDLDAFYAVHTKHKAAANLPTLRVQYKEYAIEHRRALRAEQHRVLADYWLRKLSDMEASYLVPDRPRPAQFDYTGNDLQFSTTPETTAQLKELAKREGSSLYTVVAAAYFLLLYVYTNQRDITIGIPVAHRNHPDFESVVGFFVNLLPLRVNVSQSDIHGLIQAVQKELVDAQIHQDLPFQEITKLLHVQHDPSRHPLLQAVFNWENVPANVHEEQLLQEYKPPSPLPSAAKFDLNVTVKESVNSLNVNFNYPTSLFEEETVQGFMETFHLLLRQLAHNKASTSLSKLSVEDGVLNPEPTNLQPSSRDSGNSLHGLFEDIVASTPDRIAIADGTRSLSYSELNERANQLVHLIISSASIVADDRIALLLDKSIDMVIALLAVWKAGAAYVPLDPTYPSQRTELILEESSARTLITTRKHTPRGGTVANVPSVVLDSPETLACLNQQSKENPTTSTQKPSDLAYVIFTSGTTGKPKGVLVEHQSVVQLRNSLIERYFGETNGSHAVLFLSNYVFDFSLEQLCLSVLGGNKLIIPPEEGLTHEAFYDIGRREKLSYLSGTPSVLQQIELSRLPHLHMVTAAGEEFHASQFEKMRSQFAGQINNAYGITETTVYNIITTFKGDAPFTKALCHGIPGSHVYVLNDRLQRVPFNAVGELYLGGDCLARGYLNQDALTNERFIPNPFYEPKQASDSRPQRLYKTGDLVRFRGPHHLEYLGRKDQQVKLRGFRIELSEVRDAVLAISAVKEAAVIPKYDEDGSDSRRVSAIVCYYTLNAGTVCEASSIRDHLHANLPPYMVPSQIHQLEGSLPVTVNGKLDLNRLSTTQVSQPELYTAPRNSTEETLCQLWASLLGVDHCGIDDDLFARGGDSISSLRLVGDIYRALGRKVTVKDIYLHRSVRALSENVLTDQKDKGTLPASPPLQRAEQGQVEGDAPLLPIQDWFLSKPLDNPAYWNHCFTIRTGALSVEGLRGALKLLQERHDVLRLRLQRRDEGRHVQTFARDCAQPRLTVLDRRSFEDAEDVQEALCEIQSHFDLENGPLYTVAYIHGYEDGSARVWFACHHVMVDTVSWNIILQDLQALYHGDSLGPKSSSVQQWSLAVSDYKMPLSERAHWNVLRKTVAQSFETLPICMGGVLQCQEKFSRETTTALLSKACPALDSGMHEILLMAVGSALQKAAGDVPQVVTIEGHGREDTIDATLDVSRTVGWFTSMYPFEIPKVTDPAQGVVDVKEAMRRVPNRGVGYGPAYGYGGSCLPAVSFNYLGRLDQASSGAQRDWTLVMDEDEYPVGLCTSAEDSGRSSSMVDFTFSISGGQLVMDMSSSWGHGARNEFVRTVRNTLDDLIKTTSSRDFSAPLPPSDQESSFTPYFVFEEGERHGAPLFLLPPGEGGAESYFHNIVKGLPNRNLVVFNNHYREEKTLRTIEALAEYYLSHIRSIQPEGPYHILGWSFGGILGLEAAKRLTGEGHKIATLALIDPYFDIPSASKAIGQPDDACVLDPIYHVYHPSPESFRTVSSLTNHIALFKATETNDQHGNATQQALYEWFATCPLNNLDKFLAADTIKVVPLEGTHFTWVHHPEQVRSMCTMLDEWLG

Target: ACV-synthetase of C. acremonium C-10 (Hapsidospora chrysogena, UniProt P25464)
Experiment: Cell-free ACV synthetase reaction (desalted extract, HPLC analysis after monobromobimane derivatization)
Format: biochemical
Settings: for effect on ACV-synthetase: all added at a concentration of 5 mM
Experimental: a Typical reaction mixtures contained desalted extract (about 0.5 mg protein), 20 µg cycloheximide, 10 mM ATP, 10 mM MgC12, 5 mM dithiothreitol, 5 mM L-α-aminoadipic acid, I mM L -cysteine and 5 mM L -valine, all components dissolved in 100 µl of 100 mM MOPS/KOH at pH 7.5. Reactions were performed at 25°C in a water bath shaker, and terminated by addition of 25 µl of 20% trichloroacetic acid. Precipitated protein was removed by centrifugation, and the supernatant stored at -20°C prior to analysis. (MOPS = 3-[N-Morpholino] propanesulfonic acid, - a biological buffer available from Sigma Chemical Co.
Mycelia from Example 1 were washed twice with cold 50 mM Tris/HC1 buffer (pH 7.2) containing 100 mM KC1. After centrifugation, the pellet was resuspended in a volume of cold 100 mM MOPS/KOH buffer (pH 7.2) equal to twice the pellet volume; the buffer also contained 50 mM KCI, 30 mM 2-mercaptoethanol, 20 mM EDTA and 50% glycerol (v/v). The cells were disrupted in a French Press (Aminco) at 8000 psi and the debris removed by centrifugation (30,000×g, 15 min). The clear yellow supernatant fluid was stored at -20°C or immediately desalted by passage through a Sephadex G-15 column using an elution buffer of 100 mM MOPSiKOH (pH 7.2) containing 50 mM KCI and 20% glycerol (v/v). The resulting solution contained 10 to 20 mg protein per ml and was either used immediately for the cell-free reaction or frozen for future use.
Stored frozen extract (from Example 2) was thawed, desalted over Sephadex eG-15, and eluted with 100 mM MOPS/KOH at pH 7.5. Typical reaction mixtures contained desalted extract (about 0.5 mg protein), 20 µg cycloheximide, 10 mM ATP, 10 mM MgCI2, 5 mM dithiothreitol, 5 mM L-α-aminoadipic acid, 1 mM L -cysteine and 5 mM L-valine, all components dissolved in 100 µl of 100 mM MOPS/KOH at pH 7.5. Reactions were performed at 25°C in a water bath shaker, and terminated by addition of 25 µl of 20% trichloroacetic acid. Precipitated protein was removed by centrifugation, and the supernatant stored at -20°C prior to analysis.
Analyses were performed following derivatization with monobromobimane: to a 20 I sample were added successively 2 µl of 3M KOH, 4 µl of 0.03M dithiothreitol in 2M NH4HCO3 (pH 8.2), and 4 µl of 0.3M monobromobimane in acetonitrile. This mixture was stored for 15 min. in the dark, and then extracted with methylene chloride (4 × 200 I). Five µl of 1 M citric acid (pH 2.2) was added, and 25 µl of this final solution was injected into the HPLC apparatus.
The HPLC analysis employed two solutions, viz., A, 880 mg for pentanesulfonic acid, 2.5 ml of acetic acid in I liter H20 (pH 3.6); B, 880 mg of pentanesulfonic acid, 2.5 ml acetic acid, 50 ml water and 950 ml acetonitrile. […]

## CC(C)[C@@H](N)C(=O)O [D -valine]
  effect on ACV-synthetase: no effect

## CC(C)C[C@H](N)C(=O)O [L -leucine]
  effect on ACV-synthetase: no effect

## CC[C@H](C)[C@H](N)C(=O)O [L-isoleucine]
  effect on ACV-synthetase: no effect

## N[C@@H](CCC(=O)O)C(=O)O [L-glutamate]
qualitative, concentration not clearly stated for the inhibitors
  inhibition of ACV-synthetase: inhibit
